For one sequence, binding result and activity on this sequence (fold enrichment) results are on record in patent publication US6156511A, “Peptide library and screening method” (Affymax Technologies N.V., priority 1998, dated 2000).

For series [1], the target named is headpiece dimer B7 (non-mutant) (Escherichia coli) (UniProt P03023). Briefly: binding assay. Conditions: no specific binding to 32P plasmid fragments; protein in a lysate after overexpression; only the site is given.
Series [2] concerns the target headpiece dimer A4.5 (mutant) Q18R (second headpiece) (Escherichia coli) (UniProt P03023). Briefly: binding assay. Particulars: no specific binding to 32P plasmid fragments; protein in a lysate after overexpression; only the site is given.
The target in series [3] is Lac repressor (LacI)-peptide fusion, full length (Escherichia coli) (UniProt P03023). Briefly: binding assay. Particulars: specific binding of lacI to 32P-labeled lacOs-containing fragments; protein in a lysate after overexpression; only the site is given.
For series [4], the target named is headpiece dimer B7 (non-mutant) (Escherichia coli) (UniProt P03023). Briefly: activity assay. Conditions: panning Exp. 3; 0.64 and 1.24 under basal induction; protein in a lysate after overexpression; only the site is given.

For some of these results: Where cells or extracts were used, other partners may take part. For some of these results: The exact form of at least one protein or probe is not confirmed. For some of these results: No signal at the amounts used counts as a negative.

Consider AATTGTGAGCGCTCACAATT (double strand), for which the results for the binding result in series [1], in series [2] and in series [3] were “no binding”, “no binding” and “binds”, respectively. Besides, in series [4], the activity on this sequence (fold enrichment) turned out to be 10.
